Results are given in words; binding and its absence hold for the method and conditions named. Binding seen in cells or lysates may run through a third protein. Some binding calls cover weakened binding; strength is not graded here.
Target: myocyte enhancer factor 2c (Mef2c) (mouse (endogenous in P12 C57BL/6 cortex)) (UniProt Q8CFN5)
Experiment: co-IP; nuclear fractions of P12 C57BL/6 mouse cortex in 20 mM Hepes, 90 mM NaCl, 1 mM MgCl2; overnight at 4°C with 8 μg rabbit anti-Mef2c or rabbit IgG isotype control; Dynabeads Protein G; six washes (150 mM NaCl, 1% NP40); Western blot for PGC-1α

Chains of the proteins cited; added tags and fusions are not shown.
UniProt Q8CFN5: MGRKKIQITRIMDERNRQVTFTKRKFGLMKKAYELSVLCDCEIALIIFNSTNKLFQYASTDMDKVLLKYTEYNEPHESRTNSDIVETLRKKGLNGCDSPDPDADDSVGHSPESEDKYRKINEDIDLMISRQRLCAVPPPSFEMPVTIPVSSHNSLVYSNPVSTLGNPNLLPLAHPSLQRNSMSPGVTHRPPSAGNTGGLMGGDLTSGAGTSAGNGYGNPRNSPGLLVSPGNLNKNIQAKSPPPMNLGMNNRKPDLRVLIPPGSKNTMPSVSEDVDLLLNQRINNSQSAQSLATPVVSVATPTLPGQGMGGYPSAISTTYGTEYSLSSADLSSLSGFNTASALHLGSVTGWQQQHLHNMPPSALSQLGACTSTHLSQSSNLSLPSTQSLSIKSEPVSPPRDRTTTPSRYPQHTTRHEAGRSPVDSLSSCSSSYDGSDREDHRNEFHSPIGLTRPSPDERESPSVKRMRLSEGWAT

B1: peroxisome proliferator-activated receptor-gamma coactivator 1-alpha, long isoform (PGC-1α1) (protein, UniProt O70343 1-797)
chain: MAWDMCSQDSVWSDIECAALVGEDQPLCPDLPELDLSELDVNDLDTDSFLGGLKWCSDQSEIISNQYNNEPANIFEKIDEENEANLLAVLTETLDSLPVDEDGLPSFDALTDGAVTTDNEASPSSMPDGTPPPQEAEEPSLLKKLLLAPANTQLSYNECSGLSTQNHAANHTHRIRTNPAIVKTENSWSNKAKSICQQQKPQRRPCSELLKYLTTNDDPPHTKPTENRNSSRDKCASKKKSHTQPQSQHAQAKPTTLSLPLTPESPNDPKGSPFENKTIERTLSVELSGTAGLTPPTTPPHKANQDNPFKASPKLKPSCKTVVPPPTKRARYSECSGTQGSHSTKKGPEQSELYAQLSKSSGLSRGHEERKTKRPSLRLFGDHDYCQSLNSKTDILINISQELQDSRQLDFKDASCDWQGHICSSTDSGQCYLRETLEASKQVSPCSTRKQLQDQEIRAELNKHFGHPCQAVFDDKSDKTSELRDGDFSNEQFSKLPVFINSGLAMDGLFDDSEDESDKLSYPWDGTQPYSLFDVSPSCSSFNSPCRDSVSPPKSLFSQRPQRMRSRSRSFSRHRSCSRSPYSRSRSRSPGSRSSSRSCYYYESSHYRHRTHRNSPLYVRSRSRSPYSRRPRYDSYEAYEHERLKRDEYRKEHEKRESERAKQRERQKQKAIEERRVIYVGKIRPDTTRTELRDRFEVFGEIEECTVNLRDDGDSYGFITYRYTCDAFAALENGYTLRRSNETDFELYFCGRKQFFKSNYADLDTNSDDFDPASTKSKYDSLDFDSLLKEAQRSLRR
For B1, the binding was “binds”.
